Results taken from article PMC9897673.

Protein sequences, listed by entry. Tags and fused reporters are not part of them. Lines headed by an entry give the natural chain unless they say otherwise; changes in a name come on top.
UniProt P05556: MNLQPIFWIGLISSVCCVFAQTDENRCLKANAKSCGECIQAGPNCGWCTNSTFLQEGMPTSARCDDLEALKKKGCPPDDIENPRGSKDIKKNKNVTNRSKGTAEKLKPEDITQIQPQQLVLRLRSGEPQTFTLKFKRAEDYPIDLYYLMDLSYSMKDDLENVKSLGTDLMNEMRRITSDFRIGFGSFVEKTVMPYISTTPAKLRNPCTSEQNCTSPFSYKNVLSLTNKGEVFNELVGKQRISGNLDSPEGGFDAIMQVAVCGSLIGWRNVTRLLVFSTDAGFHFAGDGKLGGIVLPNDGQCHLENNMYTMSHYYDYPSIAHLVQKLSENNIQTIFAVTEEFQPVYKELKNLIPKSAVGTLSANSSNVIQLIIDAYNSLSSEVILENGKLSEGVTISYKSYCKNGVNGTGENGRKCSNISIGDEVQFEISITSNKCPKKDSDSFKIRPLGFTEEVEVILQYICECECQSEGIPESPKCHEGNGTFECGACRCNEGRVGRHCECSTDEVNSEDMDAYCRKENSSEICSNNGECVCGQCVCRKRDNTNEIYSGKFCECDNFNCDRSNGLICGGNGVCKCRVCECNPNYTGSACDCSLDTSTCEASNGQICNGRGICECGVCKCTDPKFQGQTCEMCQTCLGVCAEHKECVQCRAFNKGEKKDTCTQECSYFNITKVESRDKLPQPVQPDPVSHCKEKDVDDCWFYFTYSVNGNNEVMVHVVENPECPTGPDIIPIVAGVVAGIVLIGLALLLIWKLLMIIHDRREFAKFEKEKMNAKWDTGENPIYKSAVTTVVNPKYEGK
UniProt O14745: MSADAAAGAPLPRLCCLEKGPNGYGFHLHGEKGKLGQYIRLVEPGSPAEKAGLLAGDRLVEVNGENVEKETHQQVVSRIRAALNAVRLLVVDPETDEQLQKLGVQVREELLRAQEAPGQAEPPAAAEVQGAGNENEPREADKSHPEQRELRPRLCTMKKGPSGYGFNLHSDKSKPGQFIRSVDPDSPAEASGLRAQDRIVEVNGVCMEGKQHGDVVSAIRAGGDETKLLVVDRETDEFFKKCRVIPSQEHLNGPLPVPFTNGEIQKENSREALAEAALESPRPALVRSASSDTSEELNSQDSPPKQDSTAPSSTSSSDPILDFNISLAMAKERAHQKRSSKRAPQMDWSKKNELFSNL

Target: T1, GFP-PODXL WT (podocalyxin isoform A, extracellularly GFP-tagged) (human) (UniProt O00592)
T1 sequence: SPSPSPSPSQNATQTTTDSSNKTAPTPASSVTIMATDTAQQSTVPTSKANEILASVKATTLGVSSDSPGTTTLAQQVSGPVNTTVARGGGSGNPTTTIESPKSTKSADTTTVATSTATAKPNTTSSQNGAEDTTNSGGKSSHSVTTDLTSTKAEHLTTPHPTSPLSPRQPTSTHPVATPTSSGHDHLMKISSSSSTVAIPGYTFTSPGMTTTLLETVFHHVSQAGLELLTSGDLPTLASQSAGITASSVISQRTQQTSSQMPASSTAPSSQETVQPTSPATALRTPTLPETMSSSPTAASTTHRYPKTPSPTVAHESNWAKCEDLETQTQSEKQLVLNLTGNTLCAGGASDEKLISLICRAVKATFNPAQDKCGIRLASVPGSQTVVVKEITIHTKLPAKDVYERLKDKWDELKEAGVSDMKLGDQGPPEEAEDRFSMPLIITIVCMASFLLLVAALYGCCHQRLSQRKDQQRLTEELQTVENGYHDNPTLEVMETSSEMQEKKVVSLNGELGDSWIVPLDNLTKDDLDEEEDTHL
Experiment: affinity purification with mass spectrometry; GFP-Trap precipitation from SILAC-labelled PC3 cells overexpressing GFP, GFP-PODXL or GFP-PODXL sorted for high surface levels; in-gel digestion, LC-MS/MS

binding	Substance
binds	β1-integrin (ITGB1), endogenous (from UniProt P05556 21-798) (receptor)
binds	SLC9A3R1/NHERF1, endogenous (from UniProt O14745 1-358)

These are yes or no findings as the source states them, for the method shown. Binding seen in cells or lysates may run through a third protein. Here binding means that the protein was enriched with, or labelled near, the bait; the list need not be complete. Tags and fused reporters may be left off the sequences shown.
